Consider three compounds from patent US20250388575A1, “HETEROBIFUNCTIONAL COMPOUNDS AND METHODS OF TREATING DISEASE” (Halda Therapeutics OpCo, Inc., priority 2022, published 2025).

By UniProt entry, the sequences of proteins in these tests, tags left out. Residues count along the entry.
UniProt P06401, 679-913 limits assumed: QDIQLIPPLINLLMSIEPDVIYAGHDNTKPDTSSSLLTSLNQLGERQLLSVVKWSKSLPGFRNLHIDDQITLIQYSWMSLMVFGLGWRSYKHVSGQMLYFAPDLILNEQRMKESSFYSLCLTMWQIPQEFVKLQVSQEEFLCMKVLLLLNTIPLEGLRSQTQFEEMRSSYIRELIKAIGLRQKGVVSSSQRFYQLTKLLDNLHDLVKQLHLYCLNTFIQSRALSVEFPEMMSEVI

Assay [1] concerns T-Rex 293 cell line SC3 cells having increased expression of androgen receptor protein. The experiment in a line: Cellular growth inhibition, T-Rex 293 SC3 cells with increased androgen receptor expression (doxycycline), CellTiter-Glo. The conditions noted are these: T-Rex 293 SC3 cells with increased androgen receptor expression (exposed to 10 ng/mL doxycycline), 72 hours. Here is the method: (§1) The following types of cells were prepared for this experiment: (i) a T-Rex 293 cell line having increased expression of androgen receptor protein due to exposure to doxycycline and (ii) a T-Rex 293 cell line lacking increased expression of androgen receptor protein. Ability of the test compounds to inhibit proliferation of the foregoing cell types was evaluated according to the procedures set forth below.
(§2) The doxycycline-inducible androgen receptor protein expressing cell line was established using the following protocol: T-Rex 293 cells were purchased from Invitrogen (Cat #R71007) and transfected using Lipofectamine 2000 with the wild-type androgen receptor protein sequence cloned into the pcDNA4/TO vector. Transfected cells were selected using 400 μg/mL Zeocin (Invitrogen Cat #R25001). Following selection, single clones were raised and maintained in Dulbecco's Modified Eagle Medium (DMEM) supplemented with 10% w/w Tetracycline-free fetal bovine serum (FBS) and 250 μg/mL Zeocin. Clones were analyzed for expression of androgen receptor protein in the presence and absence of 10 ng/ml doxycycline (Sigma Cat #D9891), and a single doxycycline-inducible clone (hereinafter “SC3”) was selected for use in downstream assays.
(§3) The SC3 cells were seeded on poly-D-lysine coated, black clear-bottom 384-well plates at 2500/well, in 25 μL Phenol Red Free Dulbecco's Modified Eagle Medium (DMEM) supplemented with 10% w/w charcoal-dextran treated fetal bovine serum (FBS) and 1% w/w pen-strep, with or without 10 ng/mL doxycycline. Pen-Strep is a commercially available mixture of penicillin G and streptomycin, which is used in mammalian cell culture media to prevent bacterial contamination. […]
(§4) At the end of the treatment duration, cell viability was quantified with CellTiter-Glo 2.0 reagent (Promega Cat #G9243). […] Following incubation, the plates were spun at 3000×g for 30 seconds, then sealed with an optical adhesive cover, and luminescence readings were measured with an EnVision Plate Reader.
(§5) Data was normalized using zero luminescence for baseline. […]

Assay [2] has as its target progesterone receptor ligand binding domain (LBD) (Homo sapiens (Human), UniProt P06401). The assay is described as follows: FP assay for binding affinity to progesterone receptor (PolarScreen Progesterone Receptor Competitor Assay). The conditions noted are these: GST-tagged PR LBD, Fluormone tracer, fluorescence polarization, 2 hours at room temperature. Here is the method:
Compounds were tested using the PolarScreen™ Progesterone Receptor Competitor Assay Kit (Life Technologies Cat #A15905 or a15906), as per the manufacturer's instructions. Briefly, GST-tagged PR LBD, Fluormone tracer, and compound were mixed and incubated for 2 hours at room temperature in the dark. Following incubation, the plates were spun at 3000×g for 30 seconds, then sealed with an optical adhesive cover, and fluorescence polarization was measured using appropriate excitation and emission filters with an EnVision Plate Reader (Perkin Elmer). Compound concentration vs. mP value were plotted in Prism (GraphPad). A four-parameter non-linear regression curve fit was applied to dose-response data to determine the half-maximal inhibitory concentration (IC50) for each test compound.

Assay [3] relates to T-Rex 293 cell line SC3 cells lacking increased expression of androgen receptor protein. The experiment in a line: Cellular growth inhibition, T-Rex 293 SC3 cells lacking increased androgen receptor expression (no doxycycline), CellTiter-Glo. The following applies: T-Rex 293 SC3 cells lacking increased androgen receptor expression (not exposed to doxycycline), 72 hours. Here is the method: as §1, §2, §3, §4, §5

Assay [4] relates to VCaP cells. The assay is described as follows: Cellular growth inhibition assay for VCaP cells, CellTiter-Glo. The following applies: 72 hours. Here is the method:
VCaP cells were purchased from American Type Cell Culture (ATCC Cat #CRL2876) and then seeded on poly-D-lysine coated, black clear-bottom 384-well plates at 5000/well in 25 μL Dulbecco's Modified Eagle Medium (DMEM) supplemented with 10% w/w Fetal bovine serum (FBS) and 1% w/w Pen-Strep. Pen-Strep is a commercially available mixture of penicillin G and streptomycin, which is used in mammalian cell culture media to prevent bacterial contamination. Dulbecco's Modified Eagle Medium (DMEM) supplemented with 10% w/w fetal bovine serum (FBS) and 1% w/w Pen-Strep is herein referred to as Treatment Medium. Following seeding of cells in the plates, the plates were spun at 300×g for 30 seconds, then equilibrated to room temperature for 30 minutes, and then deposited in a humidified tissue culture incubator maintained at 37° C. with 5% CO2.
At 24 hours after seeding of the cells, dilutions of test compound were prepared in DMSO and dissolved in Treatment Medium, to achieve a final DMSO concentration of 0.5% w/w, thereby providing the Test Compound Solution. A 25 μL aliquot of the Test Compound Solution was added to cells in the well plates. An equal volume of a solution containing DMSO and Treatment Medium was used as a negative control. Following treatment of cells with Test Compound Solution or said equal volume of a solution containing DMSO and Treatment Medium, the plates were spun at 300×g for 30 seconds, and then left in an incubator for 72 hours.
At the end of the treatment duration, cell viability was quantified with CellTiter-Glo 2.0 reagent (Promega Cat #G9243). For this purpose, plates were equilibrated to room temperature for 30 minutes, and then 25 μL of CellTiter-Glo 2.0 reagent was added to cells in the plate wells. […] Following incubation, the plates were spun at 3000×g for 30 seconds, then sealed with an optical adhesive cover, and luminescence readings were measured with an EnVision Plate Reader.
as §5

For assay [5], the system named is T47D cells. The assay is described as follows: Cellular growth inhibition assay for T47D cells, CellTiter-Glo. The conditions noted are these: 72 hours treatment, CellTiter-Glo 2.0. The method, then: T47D cells were purchased from American Type Cell Culture (ATCC Cat #HTB-133) and then seeded on poly-D-lysine coated, black clear-bottom 384-well plates at 3000/well in 25 μL Dulbecco's Modified Eagle Medium (DMEM) supplemented with 10% w/w Fetal bovine serum (FBS), 0.2 units/mL recombinant human insulin (Gibco Cat #12585014), and 1% w/w Pen-Strep. Pen-Strep is a commercially available mixture of penicillin G and streptomycin, which is used in mammalian cell culture media to prevent bacterial contamination. Dulbecco's Modified Eagle Medium (DMEM) supplemented with 10% w/w fetal bovine serum (FBS), 0.2 units/mL recombinant human insulin, and 1% w/w Pen-Strep is herein referred to as Treatment Medium. Following seeding of cells in the plates, the plates were spun at 300×g for 30 seconds, then equilibrated to room temperature for 30 minutes, and then deposited in a humidified tissue culture incubator maintained at 37° C. with 5% CO2. […]
At the end of the treatment duration, cell viability was quantified with CellTiter-Glo 2.0 reagent (Promega Cat #G9243). […] Following incubation, the plates were spun at 3000×g for 30 seconds, then sealed with an optical adhesive cover, and luminescence readings were measured with an EnVision Plate Reader (Perkin Elmer).
as §5

Each structure is given as a SMILES string. The match of structure and compound is tentative.

With `Cn1cc(-c2cc(NC(=O)N3CCN(c4ccc(C(=O)N[C@H]5CC[C@H](Oc6ccc(C#N)c(Cl)c6)CC5)nn4)CC3)ccc2Oc2ccc(F)cc2F)c2cc[nH]c2c1=O`, the results for the GI50 in assay [1], in assay [3] and in assay [4] were over 3000 nM, under 500 nM and over 3000 nM, respectively. The compound also came in with an IC50 in assay [2] of under 50 nM.
`Cn1cc(-c2cc(C(C)(C)O)ccc2O[C@H]2C(C)(C)[C@H](N(C)CC3CCN(c4ccc(C(=O)N[C@H]5CC[C@H](Oc6ccc(C#N)c(Cl)c6)CC5)nn4)CC3)C2(C)C)c2cc[nH]c2c1=O`: the results for the GI50 in assay [1], in assay [3] and in assay [4] were under 500 nM, over 3000 nM and under 500 nM, respectively.
In the case of `Cn1cc(-c2cc(NC(=O)CCCCN3CCN(c4ccc(C(=O)N[C@H]5CC[C@H](Oc6ccc(C#N)c(Cl)c6)CC5)nn4)CC3)ccc2Oc2ccc(F)cc2F)c2cc[nH]c2c1=O`, the GI50 in assay [1] is under 500 nM; in assay [3] it was over 3000 nM; in assay [4], over 3000 nM; in assay [5] it was 500 to 1500 nM. This compound also displayed an IC50 in assay [2] of under 50 nM.
